Source: patent publication US11419856B2, “Pharmaceutical combinations for use in the treatment of neoplastic diseases” (Basilea Pharmaceutica International AG, priority 2017, dated 2022)
Some results were stated once for a whole list of compounds, not compound by compound.

Test system: NCI-H460-GFP cells
Assay: Apoptosis assay (EGFP/FACS) in NCI-H460-GFP cells
Format: cell-based, human
Details: data not shown
Description: The following human cell line was used: MDA-MB-231 (ATCC: HTB-26). In addition the following enhanced green fluorescent protein (EGFP)-transfected human cell lines were used: NCI-H460 (ATCC: HTB-177) (H460GFP) and Jurkat (ATCC: TIB-152) (JurkatGFP). NCI-H460 and Jurkat cell lines were cultured in RPMI-1640 tissue culture medium containing 10% (v/v) fetal calf serum, 2 mM glutamine, non-essential amino acids and 50 μg/ml penicillin/streptomycin (Complete medium) (Sigma, Buchs, Switzerland). […]
The assays were performed in commercially available sterile 96-well U-bottom or 24-well flat-bottom tissue culture plates (Falcon). […] For time course experiments with Jurkat cells, the 96-well plates were removed shortly at the indicated time from the incubator, shaken in order to suspend the cells and an aliquot of 200 μl cell suspension was then transferred to a 96-well U-bottom plate and measured immediately on a fluorescence-activated cell sorting (FACS)-Canto II with a high through-put sampler (HTS)-module. […]
The quantification of the relative amount of apoptotic cells within a cell population was determined according to the Reference of Strebel et al., Cytometry 2001, 43(2), Green Fluorescent Protein as Novel Tool to Measure Apoptosis and Necrosis). […] As a readout the relative abundance of the cells belonging to M2 (apoptotic population) were expressed.

Question: Which maximum apoptosis induction does the source give for `C=C1C[C@@H]2CC[C@@]34C[C@H]5O[C@H]6[C@@H](O3)[C@H]3O[C@H](CC[C@@H]3O[C@H]6[C@H]5O4)CC(=O)C[C@@H]3[C@@H](OC)[C@@H](C[C@H](O)CN)O[C@H]3C[C@H]3O[C@@H](CC[C@@H]1O2)C[C@@H](C)C3=C.CS(=O)(=O)O` [Eribulin, (2R, 3R, 3aS, 7R, 8aS, 9S, 10aR, 11S, 12R, 13aR, 13bS, 15S, 18S, 21S, 24S, 26R, 28R, 29aS)-2-[(2S)-3-Amino-2-hydroxypropyl]-3-methoxy-26-methyl-20,27-dimethylidenehexacosahydro-11,15:18,21:24,28-triepoxy-7,9-ethano-12,15-methano-9H,15H-furo[3,2-i]furo[2′,3′:5,6]pyrano[4,3-b][1,4]dioxacyclopentacosin-5(4H)-one methanesulfonate (salt)] here?
Answer: 80-90%
